The supplement of paper PMC7666118
This is one part of the list.

Sequences of proteins named here, by UniProt entry; tags and fusion partners are left off. A change or cut given only in a name is not applied to a line headed by its entry.
UniProt Q9Y570: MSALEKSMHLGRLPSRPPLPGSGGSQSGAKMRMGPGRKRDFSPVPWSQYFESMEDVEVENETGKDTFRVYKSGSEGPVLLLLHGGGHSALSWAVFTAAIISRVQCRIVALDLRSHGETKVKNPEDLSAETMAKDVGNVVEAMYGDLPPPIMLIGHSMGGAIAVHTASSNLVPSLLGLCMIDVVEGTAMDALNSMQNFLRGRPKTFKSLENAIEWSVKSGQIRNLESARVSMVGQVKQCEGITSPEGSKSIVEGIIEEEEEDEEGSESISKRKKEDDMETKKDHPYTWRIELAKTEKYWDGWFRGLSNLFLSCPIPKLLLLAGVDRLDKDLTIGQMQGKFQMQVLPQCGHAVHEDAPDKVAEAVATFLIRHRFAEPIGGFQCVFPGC
UniProt P48147: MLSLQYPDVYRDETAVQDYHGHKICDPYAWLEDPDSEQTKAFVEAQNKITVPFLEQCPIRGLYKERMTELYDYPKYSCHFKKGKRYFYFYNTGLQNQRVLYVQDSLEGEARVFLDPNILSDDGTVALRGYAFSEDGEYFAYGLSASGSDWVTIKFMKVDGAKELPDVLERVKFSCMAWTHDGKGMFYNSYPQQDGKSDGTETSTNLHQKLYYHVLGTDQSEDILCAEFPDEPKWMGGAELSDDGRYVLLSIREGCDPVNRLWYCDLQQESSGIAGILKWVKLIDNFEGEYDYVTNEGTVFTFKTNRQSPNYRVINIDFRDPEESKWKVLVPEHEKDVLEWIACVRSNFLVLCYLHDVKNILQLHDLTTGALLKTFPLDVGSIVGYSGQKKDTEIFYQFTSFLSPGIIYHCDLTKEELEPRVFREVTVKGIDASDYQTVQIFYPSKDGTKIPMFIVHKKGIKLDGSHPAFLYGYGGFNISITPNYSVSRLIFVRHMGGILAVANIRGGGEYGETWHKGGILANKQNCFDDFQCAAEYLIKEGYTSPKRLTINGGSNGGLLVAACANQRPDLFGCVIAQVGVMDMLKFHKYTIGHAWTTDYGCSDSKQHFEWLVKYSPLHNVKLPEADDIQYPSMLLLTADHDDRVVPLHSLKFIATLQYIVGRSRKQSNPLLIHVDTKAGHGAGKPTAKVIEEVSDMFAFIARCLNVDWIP
UniProt P43378: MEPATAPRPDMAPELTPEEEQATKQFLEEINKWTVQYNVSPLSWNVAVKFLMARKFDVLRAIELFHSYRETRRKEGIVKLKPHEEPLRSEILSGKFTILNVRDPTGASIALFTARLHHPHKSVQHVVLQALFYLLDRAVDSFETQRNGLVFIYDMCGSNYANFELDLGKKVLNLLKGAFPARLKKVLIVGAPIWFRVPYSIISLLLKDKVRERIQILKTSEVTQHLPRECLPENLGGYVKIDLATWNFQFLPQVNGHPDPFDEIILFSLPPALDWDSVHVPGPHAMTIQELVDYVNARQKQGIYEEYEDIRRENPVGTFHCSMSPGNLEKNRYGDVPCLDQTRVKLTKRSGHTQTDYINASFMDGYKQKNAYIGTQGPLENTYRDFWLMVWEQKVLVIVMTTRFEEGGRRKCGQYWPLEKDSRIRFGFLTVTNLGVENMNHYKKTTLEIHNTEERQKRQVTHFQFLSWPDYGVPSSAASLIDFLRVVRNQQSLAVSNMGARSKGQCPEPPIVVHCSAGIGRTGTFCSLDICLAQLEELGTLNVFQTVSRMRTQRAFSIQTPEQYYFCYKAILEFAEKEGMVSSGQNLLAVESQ
UniProt Q96CD2: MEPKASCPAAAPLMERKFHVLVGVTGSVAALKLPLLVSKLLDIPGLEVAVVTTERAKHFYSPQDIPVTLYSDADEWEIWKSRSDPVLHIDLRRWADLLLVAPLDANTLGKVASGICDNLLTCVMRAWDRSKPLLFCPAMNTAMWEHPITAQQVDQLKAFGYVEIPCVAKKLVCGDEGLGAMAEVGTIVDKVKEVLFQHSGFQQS
UniProt Q96BP3: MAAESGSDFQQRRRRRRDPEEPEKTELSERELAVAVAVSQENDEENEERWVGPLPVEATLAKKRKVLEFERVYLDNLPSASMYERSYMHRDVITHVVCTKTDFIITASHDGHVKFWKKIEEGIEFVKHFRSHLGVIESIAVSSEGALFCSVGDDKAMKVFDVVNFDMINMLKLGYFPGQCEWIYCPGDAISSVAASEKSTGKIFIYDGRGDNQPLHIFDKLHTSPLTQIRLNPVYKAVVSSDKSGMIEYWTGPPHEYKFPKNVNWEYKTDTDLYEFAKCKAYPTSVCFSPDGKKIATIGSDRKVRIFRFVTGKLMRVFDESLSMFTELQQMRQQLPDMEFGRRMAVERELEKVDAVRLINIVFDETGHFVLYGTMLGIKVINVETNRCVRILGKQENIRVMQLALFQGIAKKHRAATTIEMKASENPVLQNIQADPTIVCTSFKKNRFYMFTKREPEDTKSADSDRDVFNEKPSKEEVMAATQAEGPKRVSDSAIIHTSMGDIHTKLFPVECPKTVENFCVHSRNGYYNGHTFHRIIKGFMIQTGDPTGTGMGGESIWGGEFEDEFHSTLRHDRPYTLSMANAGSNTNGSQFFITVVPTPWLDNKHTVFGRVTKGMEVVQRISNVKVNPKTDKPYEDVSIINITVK
UniProt P63151: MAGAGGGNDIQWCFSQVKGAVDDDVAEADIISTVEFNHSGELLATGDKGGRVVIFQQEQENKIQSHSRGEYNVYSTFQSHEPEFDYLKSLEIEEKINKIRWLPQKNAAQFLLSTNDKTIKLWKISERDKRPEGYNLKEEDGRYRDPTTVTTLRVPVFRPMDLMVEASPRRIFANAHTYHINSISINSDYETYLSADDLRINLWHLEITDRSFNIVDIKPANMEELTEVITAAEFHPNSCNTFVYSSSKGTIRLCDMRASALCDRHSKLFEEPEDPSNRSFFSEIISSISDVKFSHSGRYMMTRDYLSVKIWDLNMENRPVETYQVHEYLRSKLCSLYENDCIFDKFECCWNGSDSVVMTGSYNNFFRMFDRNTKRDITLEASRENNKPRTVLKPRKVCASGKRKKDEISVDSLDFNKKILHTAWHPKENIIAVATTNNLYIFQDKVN
UniProt P18031: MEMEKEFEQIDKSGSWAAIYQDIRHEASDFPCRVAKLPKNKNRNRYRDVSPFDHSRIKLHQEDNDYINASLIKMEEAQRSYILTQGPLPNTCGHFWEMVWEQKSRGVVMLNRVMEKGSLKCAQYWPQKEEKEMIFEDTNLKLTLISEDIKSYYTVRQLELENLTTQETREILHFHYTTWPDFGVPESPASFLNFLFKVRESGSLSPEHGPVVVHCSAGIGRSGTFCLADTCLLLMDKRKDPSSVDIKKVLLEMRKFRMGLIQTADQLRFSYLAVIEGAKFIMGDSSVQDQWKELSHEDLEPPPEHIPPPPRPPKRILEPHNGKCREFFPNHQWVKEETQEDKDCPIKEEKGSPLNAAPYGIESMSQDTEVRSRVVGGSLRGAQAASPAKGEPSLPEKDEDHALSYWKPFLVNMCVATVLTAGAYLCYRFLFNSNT
UniProt P61289: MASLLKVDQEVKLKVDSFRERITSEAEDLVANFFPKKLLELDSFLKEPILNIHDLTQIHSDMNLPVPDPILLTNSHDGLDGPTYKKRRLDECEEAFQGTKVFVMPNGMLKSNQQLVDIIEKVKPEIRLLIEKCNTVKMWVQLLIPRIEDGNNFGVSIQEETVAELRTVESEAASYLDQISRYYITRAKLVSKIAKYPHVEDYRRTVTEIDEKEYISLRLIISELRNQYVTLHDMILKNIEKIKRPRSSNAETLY
UniProt Q9BZL6: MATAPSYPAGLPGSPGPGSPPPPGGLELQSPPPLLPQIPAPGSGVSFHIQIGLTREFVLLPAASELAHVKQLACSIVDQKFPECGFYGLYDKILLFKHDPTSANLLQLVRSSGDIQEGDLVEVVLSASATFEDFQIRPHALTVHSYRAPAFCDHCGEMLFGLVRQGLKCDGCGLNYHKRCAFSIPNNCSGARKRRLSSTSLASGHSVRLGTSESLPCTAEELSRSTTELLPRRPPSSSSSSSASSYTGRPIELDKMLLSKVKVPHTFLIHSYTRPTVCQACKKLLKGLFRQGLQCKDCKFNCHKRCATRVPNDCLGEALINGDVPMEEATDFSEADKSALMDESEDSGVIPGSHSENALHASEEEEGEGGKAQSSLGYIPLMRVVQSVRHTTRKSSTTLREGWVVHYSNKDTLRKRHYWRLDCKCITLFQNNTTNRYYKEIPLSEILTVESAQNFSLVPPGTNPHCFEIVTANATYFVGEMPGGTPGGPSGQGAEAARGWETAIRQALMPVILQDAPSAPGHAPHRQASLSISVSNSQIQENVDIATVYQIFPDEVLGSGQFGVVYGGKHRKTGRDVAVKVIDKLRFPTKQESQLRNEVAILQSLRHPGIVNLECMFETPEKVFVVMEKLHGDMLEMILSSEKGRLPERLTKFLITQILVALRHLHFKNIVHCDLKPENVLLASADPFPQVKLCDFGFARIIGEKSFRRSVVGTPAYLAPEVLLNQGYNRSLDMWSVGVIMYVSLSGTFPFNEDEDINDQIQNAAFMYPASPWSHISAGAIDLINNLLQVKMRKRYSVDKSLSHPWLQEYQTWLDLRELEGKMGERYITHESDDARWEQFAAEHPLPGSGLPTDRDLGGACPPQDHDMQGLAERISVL
UniProt Q99575: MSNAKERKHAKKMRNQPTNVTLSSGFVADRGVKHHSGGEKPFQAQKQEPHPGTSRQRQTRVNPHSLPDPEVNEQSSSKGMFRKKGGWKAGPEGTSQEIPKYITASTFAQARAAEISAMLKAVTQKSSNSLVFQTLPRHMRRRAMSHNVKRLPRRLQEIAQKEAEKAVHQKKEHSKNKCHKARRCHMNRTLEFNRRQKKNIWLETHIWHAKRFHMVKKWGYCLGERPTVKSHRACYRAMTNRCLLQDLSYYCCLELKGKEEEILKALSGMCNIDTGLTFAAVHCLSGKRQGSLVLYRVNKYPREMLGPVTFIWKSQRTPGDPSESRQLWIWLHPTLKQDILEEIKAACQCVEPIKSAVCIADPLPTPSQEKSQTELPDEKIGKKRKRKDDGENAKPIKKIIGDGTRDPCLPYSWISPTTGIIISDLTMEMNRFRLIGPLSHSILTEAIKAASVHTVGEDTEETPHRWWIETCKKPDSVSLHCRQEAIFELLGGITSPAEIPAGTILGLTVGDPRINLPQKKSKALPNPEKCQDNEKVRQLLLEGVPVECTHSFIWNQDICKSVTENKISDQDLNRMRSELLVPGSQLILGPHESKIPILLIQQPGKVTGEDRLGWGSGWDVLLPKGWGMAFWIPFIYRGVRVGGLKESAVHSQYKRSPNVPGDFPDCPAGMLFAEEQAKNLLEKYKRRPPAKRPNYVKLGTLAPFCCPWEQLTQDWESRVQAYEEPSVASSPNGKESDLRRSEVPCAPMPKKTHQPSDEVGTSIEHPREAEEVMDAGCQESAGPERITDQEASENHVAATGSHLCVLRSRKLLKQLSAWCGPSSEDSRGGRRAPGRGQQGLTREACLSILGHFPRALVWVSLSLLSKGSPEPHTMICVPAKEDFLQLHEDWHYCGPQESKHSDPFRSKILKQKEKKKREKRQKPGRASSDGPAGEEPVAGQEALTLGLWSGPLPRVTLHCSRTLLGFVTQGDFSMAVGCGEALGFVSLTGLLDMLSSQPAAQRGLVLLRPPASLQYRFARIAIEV
UniProt P54619: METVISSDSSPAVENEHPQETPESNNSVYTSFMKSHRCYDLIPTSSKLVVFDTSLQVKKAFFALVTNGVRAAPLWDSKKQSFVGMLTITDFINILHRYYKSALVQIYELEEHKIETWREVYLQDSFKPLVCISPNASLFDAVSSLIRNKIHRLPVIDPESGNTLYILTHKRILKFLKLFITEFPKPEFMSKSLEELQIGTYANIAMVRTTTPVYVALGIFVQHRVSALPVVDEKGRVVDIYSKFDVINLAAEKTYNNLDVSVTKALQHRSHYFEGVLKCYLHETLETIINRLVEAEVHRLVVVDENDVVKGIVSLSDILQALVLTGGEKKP
UniProt Q15185: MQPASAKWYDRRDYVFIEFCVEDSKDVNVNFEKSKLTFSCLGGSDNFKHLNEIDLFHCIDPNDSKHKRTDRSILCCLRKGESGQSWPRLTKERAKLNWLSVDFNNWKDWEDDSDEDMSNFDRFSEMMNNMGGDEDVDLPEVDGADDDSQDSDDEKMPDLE
UniProt Q10713: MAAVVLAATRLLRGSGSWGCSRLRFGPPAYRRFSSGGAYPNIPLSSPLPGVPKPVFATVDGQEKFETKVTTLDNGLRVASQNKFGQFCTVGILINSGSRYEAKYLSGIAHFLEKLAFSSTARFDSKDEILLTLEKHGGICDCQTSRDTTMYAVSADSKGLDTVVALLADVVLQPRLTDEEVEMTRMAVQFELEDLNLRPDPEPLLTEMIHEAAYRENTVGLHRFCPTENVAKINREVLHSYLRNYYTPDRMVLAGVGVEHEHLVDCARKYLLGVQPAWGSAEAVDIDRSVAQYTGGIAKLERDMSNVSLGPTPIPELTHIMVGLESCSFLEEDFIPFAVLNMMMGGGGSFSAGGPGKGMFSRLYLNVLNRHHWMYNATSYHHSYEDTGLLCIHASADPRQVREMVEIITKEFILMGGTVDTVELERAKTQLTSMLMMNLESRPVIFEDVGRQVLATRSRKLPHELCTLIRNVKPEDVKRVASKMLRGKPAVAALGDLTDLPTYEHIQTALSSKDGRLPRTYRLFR

compound: COc1ccc(Cn2ccc3cc(C)c(C(=O)NO)cc32)cc1; assay: dose-dependent thermal stabilisation call (2D-TPP, DLPTP, 10% FDR) (binary (1 = stabilised)); higher = stabilised by the compound; conditions: system: HL-60 intact cells; concentration range 0.04-10 µM
Experimental: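 2D thermal proteome profiling in intact HL-60 cells treated with BRD-3811 (0, 0.04, 0.29, 2, 10 uM) for 90 min at 37 C, then heated 3 min at one of 12 temperatures (42-63.9 C). Soluble protein was quantified by TMT10 MS. The value is the DLPTP call of the paper: dose-dependent thermal stabilisation over all temperatures at 10% FDR (F-test of a dose-response against a flat model); one experiment, one call per tested protein.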

Row | Target | dose-dependent thermal stabilisation call
1 | PPHLN1 (UniProt Q8NEY8) | inactive: 0
2 | PPOX (UniProt P50336) | inactive: 0
3 | PPME1 (UniProt Q9Y570) | inactive: 0
4 | PRKCA (UniProt P17252) | inactive: 0
5 | PSMA1 (UniProt P25786) | inactive: 0
6 | POM121C (UniProt A8CG34) | inactive: 0
7 | PREP (UniProt P48147) | inactive: 0
8 | PTPN9 (UniProt P43378) | inactive: 0
9 | PMM2 (UniProt O15305) | inactive: 0
10 | PSMD13 (UniProt Q9UNM6) | inactive: 0
11 | PPCDC (UniProt Q96CD2) | inactive: 0
12 | POMP (UniProt Q9Y244) | inactive: 0
13 | PPAT (UniProt Q06203) | inactive: 0
14 | PRDX4 (UniProt Q13162) | inactive: 0
15 | PPP2R5D (UniProt Q14738) | inactive: 0
16 | PRKCSH (UniProt P14314) | inactive: 0
17 | PPWD1 (UniProt Q96BP3) | inactive: 0
18 | PMPCB (UniProt O75439) | inactive: 0

Rewritten as comma-separated lines: entries from further up.
Row,Target,dose-dependent thermal stabilisation call
2,PPOX (UniProt P50336),inactive: 0
3,PPME1 (UniProt Q9Y570),inactive: 0

More entries follow:

Row | Target | dose-dependent thermal stabilisation call
19 | PQLC1 (UniProt Q8N2U9) | inactive: 0
20 | PPP2R2A (UniProt P63151) | inactive: 0
21 | PRNP | inactive: 0
22 | PPP1R7 (UniProt Q15435) | inactive: 0
23 | PTPN1 (UniProt P18031) | inactive: 0
24 | PSME3 (UniProt P61289) | inactive: 0
25 | PRKACA (UniProt P17612) | inactive: 0
26 | POLR3H (UniProt Q9Y535) | inactive: 0
27 | PRKD2 (UniProt Q9BZL6) | inactive: 0
28 | PRPSAP2 (UniProt O60256) | inactive: 0
29 | POP1 (UniProt Q99575) | inactive: 0
30 | PSTPIP2 (UniProt Q9H939) | inactive: 0
31 | PRKAG1 (UniProt P54619) | inactive: 0
32 | PSMB10 (UniProt P40306) | inactive: 0
33 | PPP2R4 (UniProt Q15257) | inactive: 0
34 | PTGES3 (UniProt Q15185) | inactive: 0
35 | POLDIP3 (UniProt Q9BY77) | inactive: 0
36 | PMPCA (UniProt Q10713) | inactive: 0
